Values quoted from earlier work in patent US20230365624A1, “NOVEL ANGIOTENSIN I-CONVERTING ENZYME (ACE) INHIBITORY PEPTIDES” (Thai Union Group Public Company Limited, priority 2020, published 2023).
The structures given here were assigned with low confidence; some may be wrong.

Sequences of proteins named here, by UniProt entry; tags and fusion partners are left off. Residues count along the entry.
UniProt P12821, 30-1306 limits assumed: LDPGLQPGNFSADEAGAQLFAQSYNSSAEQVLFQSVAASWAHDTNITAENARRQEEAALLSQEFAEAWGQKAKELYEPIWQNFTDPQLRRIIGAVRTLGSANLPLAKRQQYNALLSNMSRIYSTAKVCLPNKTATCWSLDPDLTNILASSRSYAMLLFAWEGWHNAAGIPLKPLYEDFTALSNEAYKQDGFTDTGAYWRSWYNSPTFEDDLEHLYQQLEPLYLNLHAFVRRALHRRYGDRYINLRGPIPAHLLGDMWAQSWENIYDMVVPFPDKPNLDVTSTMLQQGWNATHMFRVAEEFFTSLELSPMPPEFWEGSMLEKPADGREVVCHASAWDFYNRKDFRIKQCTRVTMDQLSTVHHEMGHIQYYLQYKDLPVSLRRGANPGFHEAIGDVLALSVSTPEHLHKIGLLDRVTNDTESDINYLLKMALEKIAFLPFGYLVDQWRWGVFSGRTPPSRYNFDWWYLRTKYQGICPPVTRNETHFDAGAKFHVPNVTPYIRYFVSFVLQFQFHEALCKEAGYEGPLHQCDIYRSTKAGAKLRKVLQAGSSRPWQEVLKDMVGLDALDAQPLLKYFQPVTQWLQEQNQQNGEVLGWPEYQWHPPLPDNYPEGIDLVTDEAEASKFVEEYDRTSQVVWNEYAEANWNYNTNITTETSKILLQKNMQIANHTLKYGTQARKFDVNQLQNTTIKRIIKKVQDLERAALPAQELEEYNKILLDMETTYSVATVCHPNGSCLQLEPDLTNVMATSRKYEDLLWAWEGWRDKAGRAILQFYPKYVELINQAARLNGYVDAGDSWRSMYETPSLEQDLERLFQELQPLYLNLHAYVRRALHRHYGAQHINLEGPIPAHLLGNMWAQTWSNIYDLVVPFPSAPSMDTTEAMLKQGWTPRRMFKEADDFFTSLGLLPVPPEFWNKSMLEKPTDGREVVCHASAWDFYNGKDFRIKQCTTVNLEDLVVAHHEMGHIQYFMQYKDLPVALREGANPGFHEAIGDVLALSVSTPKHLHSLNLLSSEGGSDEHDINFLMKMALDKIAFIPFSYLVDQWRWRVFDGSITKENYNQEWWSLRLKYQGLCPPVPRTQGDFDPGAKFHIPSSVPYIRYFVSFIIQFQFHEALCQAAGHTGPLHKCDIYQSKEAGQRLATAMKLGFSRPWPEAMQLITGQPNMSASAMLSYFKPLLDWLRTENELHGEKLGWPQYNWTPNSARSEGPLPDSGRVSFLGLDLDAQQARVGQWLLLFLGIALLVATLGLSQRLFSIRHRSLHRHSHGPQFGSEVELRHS

Target: ACE (Homo sapiens, UniProt P12821)
Details: read-out: IC50 (ACE inhibition); Wu et al. (2008); Balti et al. (2010); cited from earlier work

| SMILES | IC50 [µM] |
| --- | --- |
| N[C@@H](Cc1ccccc1)C(=O)N[C@@H](CCC(=O)O)C(=O)O | 1.45 |
| N[C@@H](CS)C(=O)N[C@@H](Cc1ccccc1)C(=O)O | 1.96 |
